{"source": "PubChem BioAssay AID504444", "about": "(National Center for Advancing Translational Sciences (NCATS), 2011)", "note": "“And” between values parts separate entries of the source, which are not always exact repeats. Equal values may be shown once. Among all 360,000 compounds or so, about 7,500 (2.1%) were called active. Inconclusive means that the source gave no clear call. Such entries were picked first, then a sample of the others. Calls follow the shape of the dose curve; as a rule, active = well fitted inhibition curve with a large enough effect; inconclusive = small, poorly fitted or top-dose-only effect, or effect the other way; inactive = flat fitted curve, though single readings scatter. Potencies of inconclusive entries are doubtful fits and often do not repeat. % is scaled to controls: 0 for no effect and ±100 for the full control effect; potency is read from the fitted curve at half-maximal effect.", "data": [{"test": "Nrf2 qHTS screen for inhibitors; also: nearly all actives have a fitted effect of over 60% in size", "settings": "A549 ARE-Fluc reporter, luciferase luminescence, 18-24 h; activity change, negative = inhibition: at 46 µM (top of the series)", "procedure,_shortened": "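A549 ARE_Fluc cells (5000/well, 5% FBS OPTI-MEM) pre-incubated 2 h, then treated with compounds 18-24 h at 37C/5% CO2 in concentration-response. CellTiter-Fluor viability read first; BugLite luciferase luminescence after 15 min at room temperature gives Nrf2 activity.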", "values": [{"smiles": "O=C(N/N=C/c1cccc([N+](=O)[O-])c1)c1cc(-c2ccccc2)nc2ccccc12", "Potency": "inconclusive: 0.731 µM [falling, full curve, poor fit]"}, {"smiles": "Cc1ccc2c(c1)N(C(=O)CCC(=O)N1CCN(c3cccc(C)c3C)CC1)CCO2", "Potency": "inconclusive: 29.1 µM [falling, single point]"}, {"smiles": "COc1cc2ccccc2cc1C(=O)Nc1cccc(-c2nc3cc(C)c(C)cc3o2)c1", "Potency": "inconclusive: 7.31 µM [activator, partial curve]"}, {"smiles": "Cc1ccccc1CNC(=O)c1cnc2sc(N3CCC(C)CC3)nn2c1=O", "Potency": "inconclusive: 23.1 µM [activator, partial curve]"}, {"smiles": "COC(=O)[C@H]1CCCN1C(=O)Nc1cccc(Oc2c(F)c(F)c(F)c(F)c2F)c1", "Potency": "inconclusive: 22.4 µM [falling, partial curve, poor fit]"}, {"smiles": "CCOC(=O)c1cc(-c2ccc(OC)cc2)nc2c1c(C)nn2CCC(N)=S", "Potency": "inconclusive: 18.4 µM [falling, partial curve, poor fit]"}, {"smiles": "Cc1cc(C)c(OCC(=O)Nc2ccccc2N2CCOCC2)c(C)c1", "Potency": "inconclusive: 18.4 µM [falling, partial curve, poor fit]"}, {"smiles": "CCOC(=O)Cc1cc(-c2ccc(O)cc2)nc2ccc3ccccc3c12", "Potency": "inconclusive: 5.17 µM [activator, single point]"}, {"smiles": "COc1ccc(C)c2sc(=NC(=O)c3cccc(N4C(=O)CCC4=O)c3)n(C)c12", "Potency": "inconclusive: 29.1 µM [activator, single point]"}, {"smiles": "NC(N)=NN=C1CCC(c2ccccc2)CC1", "note": "(stereo not drawn)", "Potency": "inconclusive: 16.4 µM [activator, partial curve, poor fit]"}, {"smiles": "CN(C(=O)c1cccc(NC(=O)Cc2ccc(NC(=O)C3CCCN(C(=O)C4CCCC4)C3)cc2)c1)C1CCC1", "note": "(stereo not drawn)", "Potency": "inconclusive: 20.6 µM [falling, single point]"}, {"smiles": "Cn1c(=O)cc(OCCCC(=O)NCc2ccccn2)c2ccccc21", "activity change, negative = inhibition": "inactive: -17.4%"}, {"smiles": "CCN1C(=O)C(CC(=O)Nc2ccc(OC)cc2)N(CCc2ccc(F)cc2)C1=S", "note": "(stereo not drawn)", "Potency": "inconclusive: 29.1 µM [falling, single point]"}, {"smiles": "Cc1cc(C)c(C#N)c(SCCS(=O)(=O)c2ccc(Cl)cc2)n1", "Potency": "inconclusive: 23.1 µM [falling, partial curve]"}, {"smiles": "Clc1cncc(Cl)c1NNc1c2ccccc2nc2ccccc12", "activity change, negative = inhibition": "inactive: -21.7%"}, {"smiles": "Cc1cccc(C(=O)Nc2ccc(S(=O)(=O)N3CCC(c4nc5ccccc5s4)CC3)cc2)c1", "activity change, negative = inhibition": "inactive: 0.737%"}, {"smiles": "COC(=O)c1cn(CC(=O)NCc2cccs2)c2ccccc12", "Potency": "inconclusive: 9.2 µM [activator, partial curve]"}, {"smiles": "Cc1onc(-c2ccccc2)c1C(=O)N1CCN(Cc2ccccc2)CC1", "activity change, negative = inhibition": "inactive: -24.7%"}, {"smiles": "Cc1cc(C)c(NC(=O)CSc2ncc3c(n2)-c2cc(Cl)ccc2N(C)S3(=O)=O)c(C)c1", "Potency": "active: 4.61 µM"}, {"smiles": "COc1ccc(CNC(=O)C(=O)NCC2CCCO2)cc1", "note": "(stereo not drawn)", "activity change, negative = inhibition": "inactive: -25.1%"}, {"smiles": "Cc1cc(/C=C(\\C#N)C(=O)O)c(C)n1-c1ccc(Br)cc1", "Potency": "inconclusive: 8.2 µM [falling, partial curve, poor fit]"}, {"smiles": "CCN(CC)C(=O)c1ccc2nc(-c3ccccc3)c(-c3ccccc3)nc2c1", "Potency": "inconclusive: 18.4 µM [falling, partial curve]"}, {"smiles": "CCN(CC)C(=O)Cn1cnc2sc(C(=O)N3CCN(c4ccc(OC)cc4)CC3)c(C)c2c1=O", "Potency": "inconclusive: 13 µM [falling, partial curve, poor fit]"}, {"smiles": "O=C1CS(=O)(=O)C2(C(=O)N(Cc3ccccc3Cl)c3ccccc32)N1c1ccc(F)cc1", "note": "(stereo not drawn)", "Potency": "inconclusive: 14.6 µM [falling, partial curve, poor fit]"}, {"smiles": "O=C(c1cccc(S(=O)(=O)NCc2ccccc2)c1)N1CCN(c2cccc(C(F)(F)F)c2)CC1", "Potency": "inconclusive: 29.1 µM [falling, single point]"}, {"smiles": "O=C(CN1CCOCC1)NC1CC2CCC1C2", "note": "(stereo not drawn)", "activity change, negative = inhibition": "inactive: 14.9%"}, {"smiles": "CCOc1ccc(CCNC(=O)c2cc3cccc4c3n2CCS4)cc1", "activity change, negative = inhibition": "inactive: -26.5%"}, {"smiles": "Cc1cc(Cl)ccc1OCCNC(=S)NC(=O)c1cccnc1", "activity change, negative = inhibition": "inactive: 23.6%"}, {"smiles": "COc1cccc(NC(=S)NC(=O)Cc2ccccc2)c1", "Potency": "inconclusive: 5.8 µM [activator, partial curve, poor fit]"}, {"smiles": "CCOc1ccccc1C=C1SC(=S)N(CC)C1=O", "activity change, negative = inhibition": "inactive: 6.05%"}, {"smiles": "O=C(Cc1ccc(Br)cc1)NCCCn1ccnc1", "Potency": "inconclusive: 0.0651 µM [falling, full curve, poor fit]"}, {"smiles": "COc1ccc(C(=O)c2ccc(Cl)cc2)cc1", "Potency": "inconclusive: 25.9 µM [activator, single point]"}, {"smiles": "O=S(=O)(NNc1ccc(Cl)nn1)c1ccc(F)cc1", "activity change, negative = inhibition": "inactive: 0.617%"}, {"smiles": "CC(C)C(=O)Nc1cccc(C(=O)Nc2nnc(C(C)C)s2)c1", "Potency": "inconclusive: 2.06 µM [activator, full curve, poor fit]"}, {"smiles": "Cc1ccc(/C=N/NC(=S)NC2CCCCC2)o1", "Potency": "inconclusive: 1.84 µM [activator, full curve, poor fit]"}, {"smiles": "CCOC(=O)C1=C(CS(=O)(=O)c2ccc(C)c(C)c2)NC(=O)NC1c1ccccc1OCC", "note": "(stereo not drawn)", "activity change, negative = inhibition": "inactive: 10.8%"}, {"smiles": "Cc1cccc(CN2C(=O)/C(=C\\c3ccc(C(=O)NCCN4CCOCC4)cc3)Sc3ccccc32)c1", "Potency": "inconclusive: 20.6 µM [falling, partial curve, poor fit]"}, {"smiles": "COc1cc(N)ccc1NC(=O)c1cc2ccccc2o1", "Potency": "inconclusive: 2.06 µM [activator, full curve]"}, {"smiles": "Clc1ccc2[nH]c3c(c2c1)CCc1cn[nH]c1-3", "activity change, negative = inhibition": "inactive: -16%"}, {"smiles": "O=C(Nc1ccc(N2CCOCC2)c(S(=O)(=O)Nc2ccccc2Cl)c1)c1ccccc1", "Potency": "active: 16.4 µM"}, {"smiles": "O=C(c1cc(-c2cccs2)on1)N1CCc2ccccc2C1", "Potency": "inconclusive: 29.1 µM [activator, single point]"}, {"smiles": "CCN(Cc1cccc(F)c1)C(=O)c1ccc2ccccc2n1", "Potency": "inconclusive: 23.1 µM [activator, partial curve, poor fit]"}, {"smiles": "O=C(Nc1ncc2c(n1)CC(c1ccco1)CC2=O)c1ccccc1", "note": "(stereo not drawn)", "Potency": "inconclusive: 20.6 µM [activator, partial curve]"}, {"smiles": "N#Cc1c(/N=C/c2ccccc2)oc(-c2ccccc2)c1-c1ccccc1", "Potency": "inconclusive: 23.1 µM [falling, partial curve, poor fit]"}, {"smiles": "CCCCn1nnnc1SCC(=O)c1ccccc1F", "Potency": "inconclusive: 18.4 µM [activator, partial curve, poor fit]"}, {"smiles": "CSc1ccc(CN(C)C(=O)C23CC4CC(CC(Cl)(C4)C2)C3)cc1", "Potency": "inconclusive: 16.4 µM [activator, single point]"}, {"smiles": "Cc1noc(C)c1COc1ccccc1C(=O)Nc1cccc(S(=O)(=O)N(C)C)c1", "Potency": "inconclusive: 23.1 µM [falling, single point]"}, {"smiles": "COc1ccc(-c2c(C)nn3c(NC4CCCC4)cc(C)nc23)cc1OC", "Potency": "inconclusive: 16.4 µM [falling, single point]"}, {"smiles": "Cc1[nH]n(-c2nc(-c3cccc([N+](=O)[O-])c3)cs2)c(=O)c1C", "activity change, negative = inhibition": "inactive: 28.2%"}, {"smiles": "CCOc1ccc(-c2nnc(N)s2)cc1", "activity change, negative = inhibition": "inactive: 18.5%"}, {"smiles": "COc1ccc(NC(=O)C(CC(C)C)NS(=O)(=O)c2ccc3c(c2)oc(=O)n3C)cc1Cl", "note": "(stereo not drawn)", "activity change, negative = inhibition": "inactive: 0.304%"}, {"smiles": "Cc1nnn(-c2nonc2N)c1C(=O)N/N=C/c1cccc2ccccc12", "Potency": "inconclusive: 23.1 µM [falling, single point]"}, {"smiles": "Cc1ccc(-c2cc(Cc3ccncc3)c(=O)[nH]n2)cc1", "activity change, negative = inhibition": "inactive: 2.92%"}, {"smiles": "CN1c2ccccc2C(O)=C(C(=S)Nc2ccccc2)S1(=O)=O", "Potency": "inconclusive: 2.06 µM [falling, partial curve, poor fit]"}, {"smiles": "Cc1ccc(C2C(/C=C3/SC(=S)NC3=O)=C(c3cccs3)Oc3ccccc32)cc1", "note": "(stereo not drawn)", "Potency": "active: 13 µM"}, {"smiles": "O=C(Nc1ccc(OC(F)(F)F)cc1)C1=NCCN1", "Potency": "inconclusive: 7.31 µM [activator, partial curve]"}, {"smiles": "Cc1ccnc2ccc(-c3nc4ccccc4o3)cc12", "Potency": "inconclusive: 10.3 µM [activator, partial curve] and inconclusive: 13 µM [activator, partial curve, poor fit]"}, {"smiles": "Cc1cc(OCC(=O)NCc2ccccn2)c2c(C)c(C)c(=O)oc2c1", "Potency": "inconclusive: 13 µM [falling, partial curve, poor fit]"}, {"smiles": "O=C1NC(=O)/C(=C/c2cccc3ccccc23)S1", "activity change, negative = inhibition": "inactive: 6.04%"}, {"smiles": "CSc1ccc(-c2nnn(Cc3ccc(C)cc3)n2)cc1", "Potency": "inconclusive: 9.2 µM [activator, partial curve]"}, {"smiles": "CC(=O)N1CCN(c2ccc(NC(=O)C(C)Oc3ccc(Cl)cc3Cl)cc2)CC1", "note": "(stereo not drawn)", "Potency": "inconclusive: 32.6 µM [falling, single point]"}, {"smiles": "NC(=O)c1cc([N+](=O)[O-])ccc1NCc1cccnc1", "Potency": "inconclusive: 25.9 µM [falling, single point]"}, {"smiles": "COc1ccc(-n2ncc3c2ncn2nc(-c4ccc(Cl)cc4Cl)nc32)cc1", "activity change, negative = inhibition": "inactive: 14.4%"}, {"smiles": "C=CCC[C@@H](Cc1ccc(F)cc1)C(=O)OC[C@@H](Cc1c[nH]c2ccccc12)NC(=O)[C@@H](CC=C)CC(=O)NCCO", "Potency": "inconclusive: 23.1 µM [falling, single point]"}, {"smiles": "Cc1ccc(Oc2nnc(-c3cccs3)c3ccccc23)cc1", "activity change, negative = inhibition": "inactive: -4.2%"}, {"smiles": "Cc1ccccc1CS(=O)(=O)c1nnc([C@H](Cc2ccccc2)NC(=O)OC(C)(C)C)o1", "Potency": "active: 23.1 µM"}, {"smiles": "Cc1ccc(NC(=O)CSc2cn[nH]n2)cc1", "Potency": "inconclusive: 0.0052 µM [activator, full curve, poor fit]"}, {"smiles": "Cc1ccc(C(=O)Nc2cccc3cccnc23)cc1Br", "Potency": "inconclusive: 11.6 µM [activator, partial curve]"}]}]}
